Results: patent US20240400690A1 (BIO THERA SOLUTIONS, published 2024)
Results are given in words; binding and its absence hold for the method and conditions named. Some binding calls cover weakened binding; strength is not graded here.

Molecular target: T1, B7-H3 on tumour cells (MDA-MB-468 cells, N87 cells) (UniProt Q5ZPR3)
T1 sequence (looked up): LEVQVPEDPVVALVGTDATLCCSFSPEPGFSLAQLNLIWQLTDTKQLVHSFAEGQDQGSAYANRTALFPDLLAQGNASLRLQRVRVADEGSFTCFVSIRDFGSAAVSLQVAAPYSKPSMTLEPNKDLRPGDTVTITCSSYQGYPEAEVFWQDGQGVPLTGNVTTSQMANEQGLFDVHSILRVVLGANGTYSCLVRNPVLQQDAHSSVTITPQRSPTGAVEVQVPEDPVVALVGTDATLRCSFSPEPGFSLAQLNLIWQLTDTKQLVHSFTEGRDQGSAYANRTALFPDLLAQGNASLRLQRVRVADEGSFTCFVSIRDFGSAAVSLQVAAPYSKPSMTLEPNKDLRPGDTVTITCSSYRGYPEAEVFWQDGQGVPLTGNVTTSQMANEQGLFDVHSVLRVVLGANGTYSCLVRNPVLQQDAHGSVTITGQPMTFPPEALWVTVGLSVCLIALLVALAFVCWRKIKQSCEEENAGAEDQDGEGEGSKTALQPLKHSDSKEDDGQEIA
Experiment: flow cytometry on MDA-MB-468 cells, PE goat anti-human IgG Fc secondary

binding: binds
B1: control antibody M30-H1-L4 (antibody, human IgG1, kappa, V domains shown)
VH: QVQLVQSGAEVKKPGSSVKVSCKASGYTFTNYVMHWVRQAPGQGLEWMGYINPYNDDVKYNEKFKGRVTITADESTSTAYMELSSLRSEDTAVYYCARWGYYGSPLYYFDYWGQGTLVTVSS
VL: EIVLTQSPATLSLSPGERATLSCRASSRLIYMHWYQQKPGQAPRPLIYATSNLASGIPARFSGSGSGTDFTLTISSLEPEDFAVYYCQQWNSNPPTFGQGTKVEIKR
notes: Control anti-B7-H3 antibody; also called HIL4
